## Library screen at single concentrations

By UniProt entry, the sequences of proteins in these tests, tags left out. Residues count along the entry.
UniProt I6X8D2, whole entry: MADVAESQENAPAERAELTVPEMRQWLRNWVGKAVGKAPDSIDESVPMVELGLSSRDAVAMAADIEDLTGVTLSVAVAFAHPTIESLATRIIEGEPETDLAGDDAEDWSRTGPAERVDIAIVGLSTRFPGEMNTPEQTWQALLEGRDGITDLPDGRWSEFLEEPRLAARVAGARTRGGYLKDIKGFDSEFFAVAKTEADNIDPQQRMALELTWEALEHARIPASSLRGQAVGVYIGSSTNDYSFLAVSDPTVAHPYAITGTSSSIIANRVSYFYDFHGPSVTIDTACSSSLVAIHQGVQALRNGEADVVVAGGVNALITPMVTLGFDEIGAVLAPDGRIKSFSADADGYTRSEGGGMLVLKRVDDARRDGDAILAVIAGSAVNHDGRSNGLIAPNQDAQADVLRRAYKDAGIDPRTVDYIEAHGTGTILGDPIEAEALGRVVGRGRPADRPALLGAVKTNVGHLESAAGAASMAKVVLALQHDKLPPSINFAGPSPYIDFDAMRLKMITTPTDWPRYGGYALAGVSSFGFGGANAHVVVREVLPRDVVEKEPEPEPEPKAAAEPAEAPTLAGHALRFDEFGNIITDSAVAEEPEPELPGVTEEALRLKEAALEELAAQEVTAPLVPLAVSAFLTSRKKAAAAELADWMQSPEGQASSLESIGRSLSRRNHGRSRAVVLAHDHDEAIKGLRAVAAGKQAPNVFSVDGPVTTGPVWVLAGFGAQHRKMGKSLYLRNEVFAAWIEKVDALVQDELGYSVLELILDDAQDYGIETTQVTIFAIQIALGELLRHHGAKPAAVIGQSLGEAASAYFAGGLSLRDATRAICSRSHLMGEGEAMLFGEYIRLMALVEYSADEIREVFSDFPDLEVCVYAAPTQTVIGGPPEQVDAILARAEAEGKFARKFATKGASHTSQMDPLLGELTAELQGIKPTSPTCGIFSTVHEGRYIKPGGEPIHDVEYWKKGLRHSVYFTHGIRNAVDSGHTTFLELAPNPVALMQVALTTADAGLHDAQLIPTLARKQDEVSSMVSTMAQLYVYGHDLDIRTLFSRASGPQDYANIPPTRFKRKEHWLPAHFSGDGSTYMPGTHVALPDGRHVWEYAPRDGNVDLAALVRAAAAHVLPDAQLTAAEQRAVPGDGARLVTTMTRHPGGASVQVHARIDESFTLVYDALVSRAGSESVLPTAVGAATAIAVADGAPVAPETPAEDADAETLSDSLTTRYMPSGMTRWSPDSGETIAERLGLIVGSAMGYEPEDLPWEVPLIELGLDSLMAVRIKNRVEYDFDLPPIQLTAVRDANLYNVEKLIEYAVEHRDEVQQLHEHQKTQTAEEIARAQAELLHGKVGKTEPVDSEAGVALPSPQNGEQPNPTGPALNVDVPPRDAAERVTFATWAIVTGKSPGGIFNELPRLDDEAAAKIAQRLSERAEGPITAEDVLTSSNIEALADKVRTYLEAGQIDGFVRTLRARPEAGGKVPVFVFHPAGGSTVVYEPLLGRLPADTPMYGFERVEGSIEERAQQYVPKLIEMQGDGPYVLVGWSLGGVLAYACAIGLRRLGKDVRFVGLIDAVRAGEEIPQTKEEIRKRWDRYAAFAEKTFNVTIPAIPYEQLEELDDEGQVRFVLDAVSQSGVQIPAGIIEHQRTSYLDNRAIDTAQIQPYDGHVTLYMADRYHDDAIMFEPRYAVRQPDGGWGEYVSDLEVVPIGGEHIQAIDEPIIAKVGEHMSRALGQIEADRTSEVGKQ
UniProt P9WNZ1, whole entry: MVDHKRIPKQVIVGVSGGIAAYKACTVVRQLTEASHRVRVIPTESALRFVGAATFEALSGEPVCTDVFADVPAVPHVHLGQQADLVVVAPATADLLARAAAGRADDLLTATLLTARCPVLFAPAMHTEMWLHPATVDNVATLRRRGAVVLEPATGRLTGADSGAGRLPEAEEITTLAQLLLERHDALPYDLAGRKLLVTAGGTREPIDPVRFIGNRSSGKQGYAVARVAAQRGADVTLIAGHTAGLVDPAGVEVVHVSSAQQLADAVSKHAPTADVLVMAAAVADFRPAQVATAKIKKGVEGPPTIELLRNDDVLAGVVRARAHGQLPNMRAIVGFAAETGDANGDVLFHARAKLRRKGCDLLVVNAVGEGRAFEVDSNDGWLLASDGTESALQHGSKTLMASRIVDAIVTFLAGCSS
UniProt Q8IDJ8, 1-583: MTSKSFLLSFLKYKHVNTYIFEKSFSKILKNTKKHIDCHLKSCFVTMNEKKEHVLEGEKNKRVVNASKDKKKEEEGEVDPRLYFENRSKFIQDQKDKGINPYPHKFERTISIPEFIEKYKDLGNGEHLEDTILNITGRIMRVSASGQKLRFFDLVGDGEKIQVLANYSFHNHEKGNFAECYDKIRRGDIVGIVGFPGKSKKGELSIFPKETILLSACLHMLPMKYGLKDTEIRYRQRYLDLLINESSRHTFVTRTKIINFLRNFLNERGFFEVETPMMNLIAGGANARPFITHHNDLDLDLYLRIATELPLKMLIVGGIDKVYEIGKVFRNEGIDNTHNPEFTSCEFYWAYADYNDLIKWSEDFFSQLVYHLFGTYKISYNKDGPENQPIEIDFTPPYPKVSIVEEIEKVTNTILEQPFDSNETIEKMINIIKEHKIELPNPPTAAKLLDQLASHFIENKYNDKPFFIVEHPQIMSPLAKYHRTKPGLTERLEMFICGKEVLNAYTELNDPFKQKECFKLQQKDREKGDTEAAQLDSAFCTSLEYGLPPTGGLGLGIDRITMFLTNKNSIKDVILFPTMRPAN
UniProt Q4DA54, 1-478: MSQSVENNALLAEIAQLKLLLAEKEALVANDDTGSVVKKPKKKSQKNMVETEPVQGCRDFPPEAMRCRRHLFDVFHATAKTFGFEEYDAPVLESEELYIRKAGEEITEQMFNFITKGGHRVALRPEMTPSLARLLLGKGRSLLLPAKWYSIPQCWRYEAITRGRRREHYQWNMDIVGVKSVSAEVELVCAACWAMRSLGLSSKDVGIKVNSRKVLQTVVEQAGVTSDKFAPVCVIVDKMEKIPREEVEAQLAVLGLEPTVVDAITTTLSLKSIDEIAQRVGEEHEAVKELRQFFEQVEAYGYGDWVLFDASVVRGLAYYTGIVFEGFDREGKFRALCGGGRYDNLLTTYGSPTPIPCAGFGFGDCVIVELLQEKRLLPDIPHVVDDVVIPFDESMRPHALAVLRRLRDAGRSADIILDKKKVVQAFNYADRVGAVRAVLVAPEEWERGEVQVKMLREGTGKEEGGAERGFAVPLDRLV

A: 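Polyketide synthase Pks13, Mycobacterium tuberculosis (UniProt I6X8D2). Enzyme assay of the thioesterase domain of polyketide synthase 13; the read-out is not stated. Concentration: 30 µM. Higher reads as stronger inhibition (inferred from which compounds were picked for retests). Of about 67,000 compounds tested this way, about 300 (0.46%) reached 50% or more in at least one test.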
B: 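Enzyme assay of CoaBC with a phosphate dye (Biomol Green) read at 650 nm. Target: Coenzyme A biosynthesis protein CoaBC, Mycobacterium tuberculosis (UniProt P9WNZ1). Tested at 30 µM. Direction is inferred from only a few compounds that gave an IC50; most scored high, so higher reads as stronger inhibition. Most strong results did not repeat in a second test. About 67,000 compounds were tested under these conditions; 0.06% (about 40) showed 50% or more at least once.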
C: 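Lysine-tRNA ligase, Plasmodium falciparum 3D7 (UniProt Q8IDJ8). Enzyme assay of the cytosolic lysyl-tRNA synthetase in 384-well plates, read by luminescence. Compounds at 30 µM. Direction is inferred from only a few compounds that gave an IC50; most scored high, so higher reads as stronger inhibition. Size under these conditions: about 69,000 compounds, about 49 of them at 50% or above in at least one test.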
D: 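Enzyme assay of histidyl-tRNA synthetase; the read-out is not stated. Target: Histidine-tRNA ligase, Trypanosoma cruzi CL Brener (UniProt Q4DA54). Tested at 30 µM. Direction is inferred from retests: higher values go with stronger inhibition. About 69,000 compounds were tested under these conditions; 0.045% (about 31) showed 50% or more at least once.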

The filed quantity is “Percent Effect” (%). The controls that fix the scale are not given in the record; negative values are as filed. The compounds are a random part of those screened. A dash means the value is not listed here; it may have been measured.

Compound,A,B,C,D
CSc1ccccc1C(C(=O)O)N1CCN(Cc2ccccn2)CC1 (stereo not drawn),-5.572,9.211,1.037,-3.306
CN(C1CCCCC1)S(=O)(=O)N1CCN(Cc2ccco2)CC1,-11.28,4.466,3.399,0.9804
CN1N=C(C(=O)N2CCCC(CCc3ccccc3F)C2)CCC1=O (stereo not drawn),-0.7696,-3.171,7.397,-12.75
CCc1cc(NCc2ccccc2CN2CCCC2)n2ncnc2n1,-40.72,6.343,-9.228,5.435
CCOc1cc(CNC(C)c2sccc2C)ccn1 (stereo not drawn),-7.696,2.211,1.231,5.882
CC(C)NC(=O)[C@H]1C[C@H]2NCCO[C@@H]2C1,1.841,9.368,3.571,7.65
CCCN(Cc1ccccc1O)S(=O)(=O)N(C)CC,-7.576,0.6148,3.439,1.064
Cc1cc2c(cc1CNC(Cc1cccs1)c1nccs1)OCO2 (stereo not drawn),37.46,-6.57,2.575,12.88
CC(C)Cc1cc(C(=O)N2CCC(N3CCCC3)CC2)cc(O)n1,1.511,-1.843,0.9796,3.571
Cc1ccc2cccc(Oc3nc(C)c(C(=O)O)s3)c2n1,3.186,-3.632,3.352,7
Cc1ccc(C(=O)N2CCCC(N(C)C(=O)OC(C)(C)C)C2)o1 (stereo not drawn),-26.11,5.645,-0.9743,2.793
COCCCC1CCN([C@@H]2c3ccccc3C3(CCNCC3)[C@H]2O)CC1,-6.551,5.861,-0.9515,6.438
CCOc1ccc(CNC(C)c2cccc(S(=O)(=O)NC)c2)cc1 (stereo not drawn),-19.42,6.349,2.489,1.724
COC[C@@]12CCO[C@@H]1CCN(C(=O)Cc1ccccc1F)C2,-29.27,13.98,-1.521,2.479
CN(Cc1ccc2c(c1)OCO2)C(=O)Cn1cccnc1=O,-24.13,-2.35,-0.3555,3.39
Cc1ccccc1CSc1nc(N)cc(N2CCCC(C(N)=O)C2)n1 (stereo not drawn),-16.44,11.09,5.339,15.22
Cc1cccn2c(CNC(C)CCn3cccn3)cnc12 (stereo not drawn),-6.25,2.781,3.022,5.844
Cc1csc2c(C3CCCN(C(=O)Cn4cncn4)C3)nc(C)n12 (stereo not drawn),3.778,1.699,0.6658,5.747
Cc1ccc(O)c(C(=O)N2CCCC2c2nncn2CC(C)C)c1 (stereo not drawn),-27.32,-5.95,-2.996,7.182
O=C(Nc1c(F)cccc1Oc1ccccc1)C1CCS(=O)(=O)C1 (stereo not drawn),-41.07,4.069,0.39,1.571
O=C(c1cnc2[nH]c(=O)[nH]c(=O)c2c1)N1CCCC1C1CCCCC1 (stereo not drawn),-9.737,11.16,2.682,6.316
CN1CCC2(CC1)CN(C(=O)c1onc3ccccc13)CCCN2C,-3.355,-9.091,-4.258,3
CCc1nc(C2CCCN(C(=O)c3cccc(Cl)c3)C2)no1 (stereo not drawn),-10.3,2.089,1.26,6.706
O=C(O)c1ccccc1CN1CCC(c2ccnc3ccnn23)CC1,4.318,3.337,-1.428,4.563
CC(Cn1cccn1)NCC(=O)N(C)Cc1ccsc1 (stereo not drawn),19.39,0.3797,-0.0353,-3.659
Cc1n[nH]c(C)c1S(=O)(=O)N(C)Cc1nn(C)c(Cl)c1Cl,4.697,-4.073,-0.1413,4.762
Cc1cc(NC(=O)CN(C)C2CCCN(c3cccnn3)C2)on1 (stereo not drawn),-19.89,-0.1277,-1.074,8.092
O=C(Cc1ccccc1O)NC1CCCN(c2ccccc2F)C1=O (stereo not drawn),-17.2,3.388,-3.228,3.483
O=C(CCCNc1ncccn1)Nc1ccc(Cn2cncn2)cc1,-8.169,1.151,2.889,12.5
CCOc1ccc(C(=O)N(C)C)cc1NC(=O)c1ccsc1,-5.054,2.445,2.942,2.062
CC(C)(C)c1nc(CC(=O)NC2CCN(C3CC3)C2)cs1 (stereo not drawn),-9.186,2.981,0.5278,3.59
CC(C)C(=O)N1CCC(CNc2nc(C(C)C)nc3c2cnn3C)CC1,-29.73,12.36,4.06,-3.191
COc1ccc2c3c1CN(C(=O)N(C)C)CC3=CC(C)(C)CO2,-10.47,-1.211,4.706,11.24
COCCN1CCC(Cc2cncc(-c3ccc(C(=O)O)cc3)n2)C1 (stereo not drawn),-32.43,4.722,8.681,0.5405
COc1ccc(C)cc1NC(=O)Nc1cnc(N2CCOCC2)nc1,3.707,-0.1203,6.547,6.533
CNC(=O)[C@@H]1CN(C(=O)CCOC)C[C@H]1c1ccnc(N2CCCC2)n1,5.582,9.361,0.5201,4.857
CCN1CCC(CC(=O)N(C)CC(=O)c2ccc(O)cc2)CC1,-,2.948,0.9383,7.059
CC(Nc1cccc(F)c1C#N)c1cccc(S(N)(=O)=O)c1 (stereo not drawn),-18.29,6.612,1.532,10
Cc1nn2cccnc2c1C(=O)N1CCCC(Nc2ccccc2)C1 (stereo not drawn),-7.845,0.9126,-3.29,-14.72
O=C(C1CCOC1)N1C[C@H]2CN(Cc3ccncc3)C(=O)[C@H]2C1 (stereo partly drawn),-20.12,2.599,1.743,2.513
CNC(=O)C1(C)CCCN1Cc1cnn(C)c1C (stereo not drawn),-0.5752,9.091,-0.3509,-1.88
Cc1cc(-c2cnc(N3CCOCC3)nc2-c2cccnc2C)on1,10.6,1.115,1.727,0.7491
CCC[C@H]1CN(C(=O)c2cc(-c3cccs3)n(C)n2)C[C@@H]1N,-10.01,5.34,2.622,12.87
CCOC1CCCN(C(=O)c2nn(-c3ccccc3F)cc2O)C1 (stereo not drawn),-26.86,4.337,2.307,1.17
O=C(CCCc1ccccc1)Nc1cnc(N2CCOCC2)nc1,-9.963,-1.882,8.645,4.39
Cn1ccc2c(cnc3nc(-c4ccncc4)nn32)c1=O,6.579,0,2.184,13
Cc1cc(-c2ccc(=O)n(C3CCN(C(=O)C4CCC4)CC3)n2)c(C)o1,17.1,-8.789,4.112,13.85

Source: ChEMBL document CHEMBL3988442, “University of Dundee, Small-Polar-MMV Screening Library” (2021).